Among the data in publication PMC8581414 are binding values, retold here.

The chains behind the UniProt entries cited, without tags or fusion partners.
UniProt O60260: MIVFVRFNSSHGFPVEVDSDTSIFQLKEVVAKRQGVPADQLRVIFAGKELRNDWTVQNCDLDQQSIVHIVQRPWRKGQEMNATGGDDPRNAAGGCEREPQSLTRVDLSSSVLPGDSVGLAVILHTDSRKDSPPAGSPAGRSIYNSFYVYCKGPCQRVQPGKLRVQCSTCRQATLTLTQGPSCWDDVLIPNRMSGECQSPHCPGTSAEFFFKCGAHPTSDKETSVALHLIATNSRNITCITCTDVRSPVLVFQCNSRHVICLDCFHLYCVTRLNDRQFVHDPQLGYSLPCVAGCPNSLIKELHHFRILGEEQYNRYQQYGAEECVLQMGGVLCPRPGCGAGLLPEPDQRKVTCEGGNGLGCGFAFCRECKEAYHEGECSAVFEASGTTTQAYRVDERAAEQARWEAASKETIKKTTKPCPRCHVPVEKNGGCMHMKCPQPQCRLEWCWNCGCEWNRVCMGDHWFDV
UniProt P20248: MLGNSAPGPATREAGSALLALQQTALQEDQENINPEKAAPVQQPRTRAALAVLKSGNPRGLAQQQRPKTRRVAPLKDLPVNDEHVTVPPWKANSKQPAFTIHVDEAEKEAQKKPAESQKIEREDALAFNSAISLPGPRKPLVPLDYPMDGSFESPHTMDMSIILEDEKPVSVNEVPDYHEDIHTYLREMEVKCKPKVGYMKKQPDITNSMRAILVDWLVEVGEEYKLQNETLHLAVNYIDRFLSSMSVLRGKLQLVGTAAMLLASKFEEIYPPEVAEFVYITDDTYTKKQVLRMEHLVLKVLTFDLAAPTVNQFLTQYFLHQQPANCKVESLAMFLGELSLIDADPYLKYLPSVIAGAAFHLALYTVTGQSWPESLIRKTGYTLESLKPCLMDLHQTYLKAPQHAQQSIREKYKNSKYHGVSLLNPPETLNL

These are yes or no findings as the source states them, for the method shown. Binding seen in cells or lysates may run through a third protein.

The assay concerns the target eGFP-Parkin fusion protein (eGFP-PKwt) (UniProt O60260). Nature of the assay: co-IP; GFP-Trap magnetic agarose (anti-GFP VHH beads) precipitates eGFP-PK from lysates of U87 cells co-transfected with CCNA2 or CCNB1; 10 mM Tris/HCl pH 7.5, 150 mM NaCl, 0.5 mM EDTA, 0.5% Nonidet P40 substitute; 100 ug protein, overnight, 4 washes; Western blot.

Turning to cyclin A2 (from UniProt P20248 1-432), the binding result was “no binding”.
